# Test results reported in publication PMC7862700.
# By UniProt entry, the sequences of proteins in these tests, tags left out. Where a name states a change or a piece, a line headed by the entry shows the natural chain unless it says otherwise.
# UniProt Q00613: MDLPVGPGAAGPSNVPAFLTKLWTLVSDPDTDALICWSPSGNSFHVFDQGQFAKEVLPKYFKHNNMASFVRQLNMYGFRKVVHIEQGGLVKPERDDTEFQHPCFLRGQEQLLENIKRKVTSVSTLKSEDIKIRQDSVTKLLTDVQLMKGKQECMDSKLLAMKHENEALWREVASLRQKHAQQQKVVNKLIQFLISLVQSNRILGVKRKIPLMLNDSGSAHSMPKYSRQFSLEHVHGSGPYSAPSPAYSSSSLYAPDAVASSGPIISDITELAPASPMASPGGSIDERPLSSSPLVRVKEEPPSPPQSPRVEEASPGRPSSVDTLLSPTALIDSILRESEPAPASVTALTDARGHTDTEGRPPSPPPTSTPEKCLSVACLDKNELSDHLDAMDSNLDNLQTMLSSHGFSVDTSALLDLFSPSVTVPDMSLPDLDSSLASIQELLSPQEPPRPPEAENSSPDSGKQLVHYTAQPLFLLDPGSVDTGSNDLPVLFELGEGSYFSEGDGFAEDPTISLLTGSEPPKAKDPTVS
# The entries are a selection whose mix differs from that of the whole data set. For some assays here: At the low end of the ranking the order means little. Some of the results follow. For some assays here: The source does not settle which construct or isoform was used.
# Target: HSF1 (UniProt Q00613)
# Assay: DAPPL (digital affinity profiling via proximity ligation, sequencing)
# Settings: 10 mM Tris-HCl pH 7.5, 50 mM NaCl, 1 mM DTT, 4% glycerol, room temperature, 30 min; GST-TFs on glutathione beads, 16-mer random dsDNA library, 0.1% …; high values mean tight binding; double strand, one strand shown; scale: fold enrichment (6-mer frequency, TF over GST control)
row,Sequence,binding signal
1,ATGGGA,0.858
2,TCACAA,1.03
3,GATGGG,0.821
4,GGCACC,0.582
5,ATGCAG,0.903
6,CGGAAA,0.951
7,CAAAGC,1.04
8,TACGAC,1.14
9,ATAAAG,1.27
10,CCTGAC,1.2
11,GTTAGC,0.824
12,ATGGCG,0.832
13,CGCCAT,0.76
14,AGCTTG,0.935
15,AAACAG,0.832
16,CCTACC,0.927
17,GAAATT,1.48
18,GTGGAT,1.01
19,AGTGTA,0.801
20,TCCATG,1.1

row,Sequence,binding signal
1,AGTTAT,0.832
2,TACAGG,0.994
3,TAAGTT,1.45
4,CCACGT,0.817
5,TTCTAA,1.83
6,CAATGT,0.89
7,TATAAT,1.82
8,GTCCAT,0.871
9,CAGTAT,0.927
10,CAATGG,0.806
11,CCTTAG,1.2
12,GTGACC,0.896
13,CGTTGC,0.874
14,CTCCGT,0.945
15,GTACCC,0.84
16,CATACA,0.817
17,AACCGC,0.924
18,ACCTAT,1.05
19,AACTCC,1.23
20,CGGTTA,0.804

# Target: T1, ELF2 (UniProt Q15723)
# T1 sequence: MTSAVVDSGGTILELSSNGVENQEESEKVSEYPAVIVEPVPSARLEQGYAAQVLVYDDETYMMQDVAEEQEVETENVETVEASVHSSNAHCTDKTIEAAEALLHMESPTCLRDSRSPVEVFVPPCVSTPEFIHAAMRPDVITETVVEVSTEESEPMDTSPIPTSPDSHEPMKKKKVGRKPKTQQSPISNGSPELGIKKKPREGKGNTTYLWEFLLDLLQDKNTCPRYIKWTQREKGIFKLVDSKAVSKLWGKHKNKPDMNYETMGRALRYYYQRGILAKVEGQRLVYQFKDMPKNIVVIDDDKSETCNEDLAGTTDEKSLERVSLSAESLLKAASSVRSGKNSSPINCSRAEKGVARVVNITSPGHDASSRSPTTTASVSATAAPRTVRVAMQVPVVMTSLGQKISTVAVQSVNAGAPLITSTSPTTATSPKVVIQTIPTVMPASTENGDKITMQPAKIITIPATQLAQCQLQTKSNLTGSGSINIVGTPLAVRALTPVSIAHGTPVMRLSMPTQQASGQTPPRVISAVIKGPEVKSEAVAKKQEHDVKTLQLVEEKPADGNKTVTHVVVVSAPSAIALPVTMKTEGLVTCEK
# Assay: as above
# Settings: 10 mM Tris-HCl pH 7.5, 50 mM NaCl, 1 mM DTT, 4% glycerol, room temperature, 30 min; GST-TFs on glutathione beads, 16-mer random dsDNA library, 0.1% …; high values mean tight binding; double strand, one strand shown; scale: fold enrichment (6-mer frequency, TF over GST control)
row,Sequence,binding signal
1,ATGGGA,0.924
2,TCACAA,1.06
3,GATGGG,0.928
4,GGCACC,0.752
5,ATGCAG,1.05
6,CGGAAA,2.97
7,CAAAGC,1.06
8,TACGAC,1.27
9,ATAAAG,1.12
10,CCTGAC,1.5
11,GTTAGC,0.958
12,ATGGCG,1
13,CGCCAT,0.984
14,AGCTTG,0.919
15,AAACAG,1
16,CCTACC,1.35
17,GAAATT,1.47
18,GTGGAT,0.868
19,AGTGTA,1.03
20,TCCATG,1.07

row,Sequence,binding signal
1,AGTTAT,0.9
2,TACAGG,1.28
3,TAAGTT,1.38
4,CCACGT,0.942
5,TTCTAA,1.19
6,CAATGT,0.987
7,TATAAT,1.18
8,GTCCAT,1.09
9,CAGTAT,0.921
10,CAATGG,0.904
11,CCTTAG,1.18
12,GTGACC,1.22
13,CGTTGC,1.08
14,CTCCGT,1.09
15,GTACCC,1.12
16,CATACA,0.999
17,AACCGC,1.09
18,ACCTAT,1.11
19,AACTCC,1.32
20,CGGTTA,0.998
